Experimental data reported in PMC9574515.
Where two headings read alike, the source gives them in different places. These are yes or no findings as the source states them, for the method shown. In cells and extracts the contact can be indirect. Some binding calls cover weakened binding; strength is not graded here. For some assays here: Where a sequence is shown, tags or fusion partners need not be part of it.

Protein sequences, listed by entry. Tags and fused reporters are not part of them. Lines headed by an entry give the natural chain unless they say otherwise; changes in a name come on top. Chains listed by the source or under a name are the forms on record and can include a tag or linker.
UniProt Q9UNE7: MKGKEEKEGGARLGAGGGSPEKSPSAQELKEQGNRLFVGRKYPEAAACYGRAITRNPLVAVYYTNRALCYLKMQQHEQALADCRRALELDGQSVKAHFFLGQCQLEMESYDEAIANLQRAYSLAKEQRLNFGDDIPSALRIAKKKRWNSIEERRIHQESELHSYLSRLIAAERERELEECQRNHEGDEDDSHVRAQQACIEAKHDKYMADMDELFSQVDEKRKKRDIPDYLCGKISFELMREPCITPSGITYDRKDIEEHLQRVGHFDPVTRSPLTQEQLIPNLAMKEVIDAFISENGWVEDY
STUB1 ΔTPR-V5 (human (from the RefSeq entry NM_005861.3 and the capital gene symbol)) (Q9UNE7, form named): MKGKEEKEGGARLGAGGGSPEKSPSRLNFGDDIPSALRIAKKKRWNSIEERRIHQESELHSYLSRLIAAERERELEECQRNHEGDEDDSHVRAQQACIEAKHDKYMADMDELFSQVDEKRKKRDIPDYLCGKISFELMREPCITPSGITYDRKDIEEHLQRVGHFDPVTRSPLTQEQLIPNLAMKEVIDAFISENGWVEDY
UniProt Q9WUD1: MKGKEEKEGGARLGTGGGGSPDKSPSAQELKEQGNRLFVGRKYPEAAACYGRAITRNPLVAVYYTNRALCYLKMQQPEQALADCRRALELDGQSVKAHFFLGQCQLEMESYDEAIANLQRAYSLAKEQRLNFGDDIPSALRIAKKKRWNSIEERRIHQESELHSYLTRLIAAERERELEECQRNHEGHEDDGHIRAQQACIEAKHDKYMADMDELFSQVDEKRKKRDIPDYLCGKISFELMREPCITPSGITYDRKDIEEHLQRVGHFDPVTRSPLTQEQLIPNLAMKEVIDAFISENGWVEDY

Tests used:
Experiment in all cases: co-IP; anti-V5 tag magnetic beads on 1 to 2 mg of 32D Cas9 cell lysate (150 mM NaCl, 50 mM Tris pH 7.5, 1% NP40), overnight at 4 °C, Western blot; cells cultured in 0.01 ng/ml IL-3 (also 5 and 0.1 ng/ml IL-3; Ruxolitinib 100 nM for 2 h; sgNT or sgChic2-1/2)
[1] = biological target: STUB1 ΔTPR-V5 (human (from the RefSeq entry NM_005861.3 and the capital gene symbol)) (UniProt Q9UNE7)
[2] = biological target: STUB1-V5 (human (from the RefSeq entry NM_005861.3 and the capital gene symbol)) (UniProt Q9UNE7)
[3] = biological target: T1, V5-CHIC2 ΔIFRPD (human (from the RefSeq entry NM_012110.3 and the capital gene symbol)) (UniProt Q9UKJ5)
T1 sequence: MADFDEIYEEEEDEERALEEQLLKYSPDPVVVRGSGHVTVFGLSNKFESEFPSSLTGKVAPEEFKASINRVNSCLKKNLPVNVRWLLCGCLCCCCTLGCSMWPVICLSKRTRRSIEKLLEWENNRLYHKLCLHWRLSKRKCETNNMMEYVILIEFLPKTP

[4] = biological target: V5-CHIC2 (human (from the RefSeq entry NM_012110.3 and the capital gene symbol)) (UniProt Q9UKJ5)
[5] = biological target: STUB1 ΔTPR-V5 (human (from the RefSeq entry NM_005861.3 and the capital gene symbol)) (UniProt Q9UNE7); remark: listed apart in the source
[6] = biological target: STUB1-V5 (human (from the RefSeq entry NM_005861.3 and the capital gene symbol)) (UniProt Q9UNE7); remark: listed apart in the source
[7] = biological target: T1, V5-CHIC2 ΔIFRPD (human (from the RefSeq entry NM_012110.3 and the capital gene symbol)); remark: listed apart in the source
[8] = biological target: V5-CHIC2 (human (from the RefSeq entry NM_012110.3 and the capital gene symbol)) (UniProt Q9UKJ5); remark: listed apart in the source

For “endogenous Chic2 (from UniProt Q9D9G3 1-165)”, the binding [1] was “no binding” and the binding [2] was “binds”.

For “endogenous Stub1 (from UniProt Q9WUD1 1-304) (enzyme)”, the binding [3] was “no binding” and the binding [4] was “binds”.

B1: endogenous Csf2rb (receptor, UniProt P26955 23-896)
chain: HGVTEAEETVPLKTLQCYNDYTNHIICSWADTEDAQGLINMTLYHQLEKKQPVSCELSEELMWSECPSSHRCVPRRCVIPYTRFSITNEDYYSFRPDSDLGIQLMVPLAQNVQPPLPKNVSISSSEDRFLLEWSVSLGDAQVSWLSSKDIEFEVAYKRLQDSWEDAYSLHTSKFQVNFEPKLFLPNSIYAARVRTRLSPGSSLSGRPSRWSPEVHWDSQPGDKAQPQNLQCFFDGIQSLHCSWEVWTQTTGSVSFGLFYRPSPVAPEEKCSPVVKEPPGASVYTRYHCSLPVPEPSAHSQYTVSVKHLEQGKFIMSYNHIQMEPPTLNLTKNRDSYSLHWETQKMAYSFIEHTFQVQYKKKSDSWEDSKTENLDRAHSMDLSQLEPDTSYCARVRVKPISNYDGIWSKWSEEYTWKTDWVMPTLWIVLILVFLILTLLLILRFGCVSVYRTYRKWKEKIPNPSKSLLFQDGGKGLWPPGSMAAFATKNPALQGPQSRLLAEQQGESYAHLEDNNVSPLTIEDPNIIRVPPSGPDTTPAASSESTEQLPNVQVEGPTPNRPRKQLPSFDFNGPYLGPPQSHSLPDLPDQLGSPQVGGSLKPALPGSLEYMCLPPGGQAQLVPLSQVMGQGQAMDVQCGSSLETSGSPSVEPKENPPVELSMEEQEARDNPVTLPISSGGPEGSMMASDYVTPGDPVLTLPTGPLSTSLGPSLGLPSAQSPSLCLKLPRVPSGSPALGPPGFEDYVELPPSVSQAAKSPPGHPAPPVASSPTVIPGEPREEVGPASPHPEGLLVLQQVGDYCFLPGLGPGSLSPHSKPPSPSLCSETEDLVQDLSVKKFPYQPMPQAPAIQFFKSLKHQDYLSLPPWDNSQSGKVC
For B1, the binding [5] was “no binding”, the binding [6] was “binds” and the binding [7] was “binds”. The binding [8] was “binds”.
